This test relates to HCoV-OC43. More on the design: species or system RD; HTS, protection from HCoV-OC43 induced cell death, luminescent cell viability (CellCounting-Lite 2.0), inhibition rate. The following applies: 24 h post infection, 1 h compound pre-incubation, 10 µM, inhibitor.

Structures can show the parent of a compound that is named as a salt. Where two headings read alike, the source gives them in different places. About 60 (2%) of roughly 3,300 compounds showed an effect of 50% or more. The list shows a part of the results.

Take `C[C@@H]1CC[C@@]2(NC1)O[C@H]1C[C@H]3[C@@H]4CC=C5C[C@@H](O)CC[C@]5(C)[C@H]4CC[C@]3(C)[C@H]1[C@@H]2C` [Solasodine]: the “OC43 Inhibition rate” value was determined as 0.9%.

For the compound `C[C@H](O)CC(=O)O` [(S)-3-Hydroxybutanoic acid], the “OC43 Inhibition rate” value is recorded as 3.9%.

As for `CCCCCCCCCC(=O)N[C@@H](Cc1c[nH]c2ccccc12)C(=O)N[C@H](CC(N)=O)C(=O)N[C@@H](CC(=O)O)C(=O)N[C@@H]1C(=O)NCC(=O)N[C@@H](CCCN)C(=O)N[C@@H](CC(=O)O)C(=O)N[C@H](C)C(=O)N[C@@H](CC(=O)O)C(=O)NCC(=O)N[C@H](CO)C(=O)N[C@@H]([C@H](C)CC(=O)O)C(=O)N[C@@H](CC(=O)c2ccccc2N)C(=O)O[C@@H]1C` [Daptomycin], the “OC43 Inhibition rate” value amounted to 62.7%.

On to `NC(=O)NC(NC(N)=O)C(=O)O` [Allantoic acid], for which the “OC43 Inhibition rate” value was 0.9%.

Regarding `CC(C)(O)CC[C@@H](O)[C@](C)(O)[C@H]1CC=C2C3=C(CC[C@@]21C)[C@@]1(C)C[C@H](O)[C@H](O)C[C@H]1C(=O)C3` [Podecdysone B], the “OC43 Inhibition rate” value is listed as -0.3%.

With `COc1cc(C(=O)O[C@H]2[C@@H]3C=CO[C@@H](O[C@@H]4O[C@H](CO)[C@@H](O)[C@H](O)[C@H]4O)[C@@H]3[C@@]3(CO)O[C@@H]23)ccc1O` [Picroside II], the “OC43 Inhibition rate” value came to 0.3%.

As to `CC(=O)OCC1=CO[C@@H](OC(=O)CC(C)C)[C@H]2C1=C[C@H](OC(=O)CC(C)(C)OC(C)=O)[C@]21CO1` [Acevaltrate], the “OC43 Inhibition rate” value is on record as 1.4%.

Take `C[C@H](CCC(=O)NCC(=O)O)[C@H]1CC[C@H]2[C@@H]3C[C@H](O)[C@@H]4C[C@H](O)CC[C@]4(C)[C@H]3CC[C@]12C` [Glycohyodeoxycholic acid]: the “OC43 Inhibition rate” value is -0.5%.

Regarding `Nc1ncnc2c1ncn2[C@@H]1O[C@H](CO)[C@@H](O)[C@@H]1O` [Vidarabine], the “OC43 Inhibition rate” value is reported as -2.6%.

With `O=c1[nH]cnc2nc[nH]c12` [Hypoxanthine], the “OC43 Inhibition rate” value is on record as -0.8%.

Consider `COc1ccc2c(c1O)-c1c(OC)c(OC)cc3c1[C@H](C2)N(C)CC3` [Isocorydine], for which the “OC43 Inhibition rate” value turned out to be 8.2%.

As to `CC[C@H](C)[C@H](N)C(=O)O` [L-Isoleucine], the “OC43 Inhibition rate” value is reported as -3.5%.

`COC(=O)/C=C/c1ccc(O)cc1` [(E)-Methyl 4-coumarate]: the “OC43 Inhibition rate” value (OC43 Inhibition rate, 24 h) amounted to 0.4%.

With `NCCCCN` [1,4-Diaminobutane (dihydrochloride)], the “OC43 Inhibition rate” value is given as -0.1%.

In the case of `CO[C@@H]1[C@@H](OC)[C@H](C)[C@@](O)(CC(=O)O)O[C@H]1[C@H](C)[C@H]1O[C@@]2(CC[C@@](C)([C@H]3CC[C@@](C)([C@@H]4O[C@@H]([C@H]5O[C@](C)(O)[C@H](C)C[C@@H]5C)C[C@@H]4O[C@@H]4C[C@H](OC)[C@@H](OC)[C@H](C)O4)O3)O2)C[C@H](O)[C@H]1C` [Maduramicin (ammonium)], the “OC43 Inhibition rate” value was -13.3%.
